Assay results taken from US20210244737A1, “COMPOSITIONS FOR TREATING MELANOMA” (INSERM (INSTITUT NATIONAL DE LA SANTÉ ET DE LA RECHERCHE …, priority 2018, published 2021).
At least one compound was matched to its structure with a doubt left.

Columns and labels:
[1] = tested on: 501Mel cells; assay: Cell cycle profile by flow cytometry of PI-stained cells on plastic or MAF-derived ECM; assay type: cell-based; details: 2 μM vemurafenib 48 h; MAF-derived ECM in contrast to plastic
[2] = tested on: 1205Lu xenografts; assay: Histopathological evaluation of collagen fibers (picrosirius red) in xenografts; assay type: in vivo, mice; details: 1205Lu xenograft sections; Imatinib effect is on the Vemurafenib-induced increase
[3] = tested on: 501Mel and 1205Lu cells; assay: Drug-protection assay (MM-DR) on cell-derived ECM, immunoblot of proliferation/survival markers; assay type: cell-based; details: cells on MAF-derived ECM in presence of the drug
[4] = tested on: 501Mel cells; assay: Cell proliferation assay (IncuCyte time-lapse) on plastic or MAF-derived 3D ECM; assay type: cell-based; details: 2 μM Vemurafenib; cells cultured on cell-derived ECM compared with plastic
[5] = tested on: 1205Lu melanoma cells
Procedure: Mouse experiments were carried out in accordance with the Institutional Animal Care and the local ethical committee. […] Tumor was measured by caliper and the volume was calculated using the formula: V=tumor width×tumor length 2×0.5. When tumor reached 100 mm^3, mice were randomly grouped into control and test groups. […] Mice in control group were treated with vehicle. […] After animal sacrifice tumors were dissected, fixed in formalin and embedded in paraffin.

## CCCS(=O)(=O)Nc1ccc(F)c(C(=O)c2c[nH]c3ncc(-c4ccc(Cl)cc4)cc23)c1F [Vemurafenib]
[1]
  G0/G1 cell cycle arrest induced by the targeted therapy: prevented the G0/G1 cell cycle arrest
[2]
  Collagen fibers thickness in melanoma ECM stroma: marked increase
[3]
  levels of the cell cycle inhibitor p27KIP1: low levels
  levels of the proliferation marker CyclinD1: sustained levels
  phosphorylation of ERK1/2: maintained phosphorylation
[4]
  Cell growth inhibition induced by BRAFi: totally abrogated
[5]; 1205Lu sc xenograft in nude mice, ip Vemurafenib 35 mg/kg, Imatinib mesylate 60 mg/kg, alone or combined
  tumor growth: rapid inhibition of tumor growth
[5]; 1205Lu xenograft, after 12 days of treatment
  tumor regrowth / development of resistance: had resumed growth
